Results: patent US20130184160
The exact form of at least one protein or probe is not confirmed.

Protein sequences, listed by entry. Tags and fused reporters are not part of them. Residues count along the entry.
UniProt P07288, 25-261: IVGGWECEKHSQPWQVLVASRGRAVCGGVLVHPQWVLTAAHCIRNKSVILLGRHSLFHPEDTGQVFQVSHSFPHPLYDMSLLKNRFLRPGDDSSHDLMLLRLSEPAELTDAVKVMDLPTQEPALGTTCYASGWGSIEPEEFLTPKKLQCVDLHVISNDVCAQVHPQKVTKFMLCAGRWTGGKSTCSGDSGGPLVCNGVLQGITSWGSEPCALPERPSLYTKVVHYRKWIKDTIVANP

Key:
Assay in all cases: filter binding
[1] = molecular target: Prostate-specific antigen (PSA), high-pI fraction (UniProt P07288); details: T positions from B-TTP (quinoline boronic acid dU), purified native protein, protein details: Lee BioSolutions, high pI glycoform fraction, label: alpha-32P-dATP
[2] = molecular target: Prostate-specific antigen (PSA), low-pI fraction (UniProt P07288); details: T positions from B-TTP (quinoline boronic acid dU); glycoform specificity control; purified native protein; protein details: Lee BioSolutions, low pI glycoform fraction; label: alpha-32P-dATP; single-stranded …
[3] = system: Fibrinogen, periodate-treated; details: same buffer, purified native protein, protein details: glycans oxidised with sodium periodate, label: alpha-32P-dATP, single-stranded DNA
[4] = system: Fibrinogen, deglycosylated; details: same buffer, purified native protein, protein details: chemically deglycosylated with TFMS, label: alpha-32P-dATP, single-stranded DNA
[5] = system: Fibrinogen (glycosylated, untreated); details: purified native protein, label: alpha-32P-dATP, single-stranded DNA
[6] = T positions from B-TTP (quinoline-8-boronic acid linked at 5-position of dU via triazole), outside primer
[7] = T positions from B-TTP (quinoline boronic acid dU)

## CCTTCGTTGTCTGCCTTCGTACTCTAGCCTACGTAATCACGATTACGGATATCGGTTTGCCATCGTCATGACCCTTCAGAATTCGCACCA [PSA aptamer 5D]
[1]; single-stranded DNA
  Kd: 19 nM
[2]
  Kd: 750 nM

## CCTTCGTTGTCTGCCTTCGTAGCGGATCGAATTACGCGTTAACGGCAACCGATAACGGGACCGATTGCACACCCTTCAGAATTCGCACCA [85A B-TTP (114H)]
[3]; [6]
  Kd: 70.7 nM
[4]; [6]
  Kd: 390 nM
[5]; T positions from B-TTP (quinoline-8-boronic acid linked at 5-position of dU via triazole), outside primer, equilibrium ultrafiltration (Microcon YM-100), 300 mM NaCl, 5 mM MgCl2, 20 mM Tris pH 7.6, 25 C, 6.3 nM in Table 1
  Kd: 6.17 nM

## CCTTCGTTGTCTGCCTTCGTTATCGGTTTGCCATCGACGGTCGGCACTTCCGCTACCATCTGGCCTAATGACCCTTCAGAATTCGCACCA [PSA aptamer 5A]
[1]; selected against high-pI PSA, single-stranded …
  Kd: 7 nM
[2]
  Kd: 190 nM

## CCTTCGTTGTCTGCCTTCGTCTAGGCATATCGGTTTGCCATCGTCGAGCACTTCCGCTACGTAAGATTCCACCCTTCAGAATTCGCACCA [PSA aptamer 5B]
[1]; single-stranded DNA
  Kd: 8 nM
[2]
  Kd: 830 nM

## CCTTCGTTGTCTGCCTTCGTTTCTACGGTAACCTTATCGGTTTGCCATCGACGGCCGTAATTCGGCATCGACCCTTCAGAATTCGCACCA [PSA aptamer 5C]
[1]; single-stranded DNA
  Kd: 16 nM
[2]
  Kd: 670 nM

## CCTTCGTTGTCTGCCTTCGTAGGACCGCAGACATCGACGCAGGGAAATTCCGCAAGTCCAGCCAAATGCCACCCTTCAGAATTCGCACCA [85B B-TTP (114O)]
[3]; [7]
  Kd: 118 nM
[4]; [7]
  Kd: 86.2 nM
[5]; T positions from B-TTP (quinoline boronic acid dU), same buffer, 5.8 nM in Table 1
  Kd: 6.44 nM

## CCTTCGTTGTCTGCCTTCGTAGTCGACTCTGACGCATGGACGTATCCTGTGCGTATGCATTATGAAGCACACCCTTCAGAATTCGCACCA [85C B-TTP (114F)]
[3]; [7]
  Kd: 203 nM
[4]; [7]
  Kd: 371 nM
[5]; T positions from B-TTP (quinoline boronic acid dU), same buffer, 16 nM in Table 1
  Kd: 17.1 nM

## CCTTCGTTGTCTGCCTTCGTATATTCGGCGTAGCCATTAGCTTAGCGATTAGCCTATCGGTTTGCCATCGACCCTTCAGAATTCGCACCA [PSA aptamer 5E]
[1]; single-stranded DNA
  Kd: 34 nM
[2]
  Kd: 820 nM
